The source of these data is doi:10.1101/2022.10.05.510992.

For the assay, the target named is NBCn1 C-terminal tail (bait of the pull-down with mass spectrometry). Nature of the assay: affinity purification with mass spectrometry.

No constants are given. Whether binding was seen depends on the method and setting. In cells and extracts the contact can be indirect. A yes stands for co-enrichment or nearness to the bait. Other partners may have been found.

B1: LLGL1 (lethal (2) giant larvae 1) (protein, UniProt Q15334 1-1064)
chain: MMKFRFRRQGADPQREKLKQELFAFNKTVEHGFPNQPSALAFDPELRIMAIGTRSGAVKIYGAPGVEFTGLHRDAATVTQMHFLTGQGRLLSLLDDSSLHLWEIVHHNGCAHLEEALSFQLPSRPGFDGASAPLSLTRVTVVLLVAASDIAALGTEGSSVFFLDVTTLTLLEGQTLAPGEVLRSVPDDYRCGKALGPVESLQGHLRDPTKILIGYSRGLLVIWNQASQCVDHIFLGNQQLESLCWGRDSSTVVSSHSDGSYAVWSVDAGSFPTLQPTVATTPYGPFPCKAINKILWRNCESGGHFIIFSGGMPRASYGDRHCVSVLRAETLVTLDFTSRIIDFFTVHSTRPEDEFDDPQALAVLLEEELVVLDLQTPGWPAVPAPYLAPLHSSAITCSAHVASVPAKLWARIVSAGEQQSPQPVSSALSWPITGGRNLAQEPSQRGLLLTGHEDGTVRFWDASGVALRPLYKLSTAGLFQTDCEHADSLAQAAEDDWPPFRKVGCFDPYSDDPRLGVQKVALCKYTAQMVVAGTAGQVLVLELSDVPVEQAVSVAIIDLLQDREGFTWKGHERLSPRTGPLPWPAGFQPRVLVQCLPPAAVTAVTLHTEWSLVAFGTSHGFGLFDYQRKSPVLARCTLHPNDSLAMEGPLSRVKSLKKSLRQSFRRIRKSRVSGKKRAANASSKLQEANAQLAEQACPHDVEMTPVQRRIEPRSADDSLSGVVRCLYFADTFLRDGAHHGPTMWAGTNSGSVFAYALEVPAAAVGGEKRPEQAVEAVLGKEVQLMHRAPVVAIAVLDGRGRPLPEPYEASRDLAQAPDMQGGHAVLIASEEQFKVFTLPKVSAKTKFKLTAHEGCRVRKVALATFASVACEDYAETCLACLTNLGDVHVFSVPGLRPQVHYSCIRKEDISGIASCVFTRHGQGFYLISPSEFERFSLSARNITEPLCSLDINWPRDATQASYRIRESPKLSQANGTPSILLAPQSLDGSPDPAHSMGPDTPEPPEAALSPMSIDSATSADTTLDTTGDVTVEDVKDFLGSSEESEKNLRNLAEDEAHACAILIK
In the case of B1, the binding entry is reported as “binds”.
